At least one compound was matched to its structure with a doubt left.
How the values were obtained:
AKT = test: Western blot of AKT activity (pAKT) during differentiation; format: cell-based, human; details: protein harvested at day 3, insulin 20 μg/ml, Ly294002 16 μM, FIG. 3C
Experimental: (§1) FIGS. 3A-3F present candidate pathways critical for arteriovenous specification. (A) Flow cytometric analysis of EFNB2-tdTomato and EPHB4-EGFP expression on CD31 and CD144 gated endothelial cells. EFNB2-tdTomato/EPHB4-EGFP dual reporter cells (hetero knock-in in H1 cells for each gene) were first differentiated into mesoderm cells by E8BAC medium (E8 medium supplemented with BMP4, Activin-A, and CHIR99021). E5 (E8 medium minus FGF2, TGFβ1, and insulin) medium supplemented with 100 ng/ml FGF2, 50 ng/ml VEGFA, and 50 ng/ml BMP4 was used to induce mesoderm cells to differentiate into endothelial cells from day 2 to day 6. Either Insulin (20 μg/ml) or Ly294002 (16 μM, a PI3K inhibitor) was added to the medium as indicated from day 2 to day 6. (B) Statistics of EFNB2-tdTommato^high/EPHB4-EGFP^low cells. Data are represented as mean±SD. *: P<0.05, n=5. (C) Western blots showing AKT activity. Protein was harvested at day 3. (D) Flow cytometric analysis of EFNB2-tdTomato and EPHB4-EGFP expression on CD31 and CD144 gated endothelial cells. E5 medium supplemented with 50 ng/ml VEGFA, 50 ng/ml BMP4 or 10 μM SB431542 was used to induce mesoderm cells to differentiate into endothelial cells from day 2 to day 6. (E) Flow cytometric analysis of EFNB2-tdTomato and EPHB4-EGFP expression on CD31 and CD144 gated endothelial cells. ES cells were first differentiated into mesoderm cells as mentioned above. […]

[1] = tested on: EFNB2-tdTomato/EPHB4-EGFP dual reporter cells (H1 ES cells); test: Arterial endothelial differentiation of EFNB2-tdTomato/EPHB4-EGFP dual reporter cells, flow cytometry; format: cell-based, human; details: Ly294002 16 μM with insulin 20 μg/ml, day 2 to day 6; FIGS. 3A-3B
Experimental: as §1, with “(A)” for “FIGS. 3A-3F present candidate pathways critical for arteriovenous specification. (A)”, “Data are represented as mean±SD. *: P<0.05, n=5.” left out

O=c1cc(N2CCOCC2)oc2c(-c3ccccc3)cccc12 [Ly294002, reference compound]
Phosphorylated AKT (pAKT) (AKT): decreased | effect on insulin's inhibition of arterial differentiation [1]: reversed the inhibitory effect of insulin

— US11674123B2, “Generating arterial endothelial cell populations” (Wisconsin Alumni Research Foundation, priority 2015, dated 2023)
